Results reported in patent US8691960B2, “Oxidoreductases for enantioselective reactions” (Duke University, priority 2012, dated 2014).
Where a chain is given by its changes, count along the chain named. Names may count otherwise. Some of these results come from one statement about several compounds together.

B1: TtHIDH-R118H: Thermus thermophilus homoisocitrate dehydrogenase R118H mutant (protein)
chain: MAYRICLIEGDGIGHEVIPAARRVLEATGLPLEFVEAEAGWETFERRGTSVPEETVEKILSCHATLFGAATSPTRKVPGFFGAIRYLRRRLDLYANVRPAKSRPVPGSRPGVDLVIVHENTEGLYVEQERRYLDVAIADAVISKKASERIGRAALRIAEGRPRKTLHIAHKANVLPLTQGLFLDTVKEVAKDFPLVNVQDIIVDNCAMQLVMRPERFDVIVTTNLLGDILSDLAAGLVGGLGLAPSGNIGDTTAVFEPVHGSAPDIAGKGIANPTAAILSAAMMLDYLGEKEAAKRVEKAVDLVLERGPRTPDLGGDATTEAFTEAVVEALKSL
modifications: TtHIDH R118H polypeptide
notes: Thermus thermophilus homoisocitrate dehydrogenase R118H mutant
B2: TtHIDH-WT: wild type Thermus thermophilus homoisocitrate dehydrogenase (protein, listed as Thermus thermophilus)
chain: B1 chain with H118R

Assay: NADH oxidation rate of purified HIDH enzymes with 2-oxoadipate (fluorescence / UV 340 nm)
Type: biochemical
Settings: TtHIDH, 100 μM NADH
Description: NADH, 2-oxoadipate, 2-oxoglutarate, 2-heptandioate, and MgCl2 were from Sigma. Standard reaction mixes contained 15 mM 2-oxoadipate, 100 μM NADH, and a reaction buffer with final concentrations of 20 mM MgCl2 and 500 mM HEPES, pH 7.3. NADH oxidation was monitored by the decrease in fluorescence with excitation of 340 nm and emission of 450 nm on a PolarSTAR Optima plate reader (BMG Labtech). Fluorescence monitored reactions were carried out in 10-μL volumes in a 384-well black microplate (Greiner 788076) covered with clear optical film. The levels of fluorescence were converted to NADH concentrations based on standards of NADH in reaction buffer containing BSA. Reactions with high amounts of NADH were monitored by the UV absorbance of NADH at 340 nm in 40-μL reaction volumes in clear 96-well plates.
Reaction rates are NADH oxidation per unit time per unit of purified enzyme or crude lysate and 1 Unit (U) is 1 μmolNADH min^−1 mgenzyme^−1. Rates are initial rates calculated by least squares linear regression on the first 10 minutes of the reaction. […]
Assays were performed with 40 ng/μL enzyme, 15 mM 2-oxoadipate, 100 μM NADH, 20 mM MgCl2 and 100 mM HEPES, pH 7.3 in 10 or 20 μL volumes in 384-well black microplates. NADH concentration was monitored by the decrease in fluorescence (excitation wavelength: 340 nm; emission wavelength: 450 nm) on a fluorescent plate reader. […]

| Molecule | initial rate of NADH oxidation without 2-oxoadipate (no 2-oxoadipate substrate) [U] | initial rate of NADH oxidation (15 mM 2-oxoadipate, 45° C., U = μmol NADH min^−1 mg^−1) [U] |
| --- | --- | --- |
| B1 | < 0.01 |  |
| B2 |  | < 0.01 |
